From patent US12269803B2, “Krüppel-like factor 15 (KLF15) small molecule agonists in kidney disease” (United States Government as represented by the Department …, priority 2020, dated 2025)
For at least one compound, name, drawing or mass did not settle the structure.

Test system: KLF15 promoter
Experiment: KLF15 promoter activity in human podocytes, KLF15 agonist combined with dexamethasone
Type: cell-based
Details: alone (DEX 1 μM), vs DMSO-treated human podocytes

Compound: C[C@@H]1C[C@H]2[C@@H]3CCC4=CC(=O)C=C[C@]4(C)[C@@]3(F)[C@@H](O)C[C@]2(C)[C@@]1(O)C(=O)CO [DEX, dexamethasone, reference compound]
- KLF15 promoter activity, single agent: significantly induced KLF15 promoter activity
